{"source": "patent US20130190407A1", "about": "“CALCIUM RECEPTOR-ACTIVE MOLECULES” (NPS Pharmaceuticals, Inc., priority 1991, published 2013)", "target": "T1, parathyroid cell calcium receptor (Bos taurus, UniProt P35384)", "T1 sequence (P35384 20-1085)": "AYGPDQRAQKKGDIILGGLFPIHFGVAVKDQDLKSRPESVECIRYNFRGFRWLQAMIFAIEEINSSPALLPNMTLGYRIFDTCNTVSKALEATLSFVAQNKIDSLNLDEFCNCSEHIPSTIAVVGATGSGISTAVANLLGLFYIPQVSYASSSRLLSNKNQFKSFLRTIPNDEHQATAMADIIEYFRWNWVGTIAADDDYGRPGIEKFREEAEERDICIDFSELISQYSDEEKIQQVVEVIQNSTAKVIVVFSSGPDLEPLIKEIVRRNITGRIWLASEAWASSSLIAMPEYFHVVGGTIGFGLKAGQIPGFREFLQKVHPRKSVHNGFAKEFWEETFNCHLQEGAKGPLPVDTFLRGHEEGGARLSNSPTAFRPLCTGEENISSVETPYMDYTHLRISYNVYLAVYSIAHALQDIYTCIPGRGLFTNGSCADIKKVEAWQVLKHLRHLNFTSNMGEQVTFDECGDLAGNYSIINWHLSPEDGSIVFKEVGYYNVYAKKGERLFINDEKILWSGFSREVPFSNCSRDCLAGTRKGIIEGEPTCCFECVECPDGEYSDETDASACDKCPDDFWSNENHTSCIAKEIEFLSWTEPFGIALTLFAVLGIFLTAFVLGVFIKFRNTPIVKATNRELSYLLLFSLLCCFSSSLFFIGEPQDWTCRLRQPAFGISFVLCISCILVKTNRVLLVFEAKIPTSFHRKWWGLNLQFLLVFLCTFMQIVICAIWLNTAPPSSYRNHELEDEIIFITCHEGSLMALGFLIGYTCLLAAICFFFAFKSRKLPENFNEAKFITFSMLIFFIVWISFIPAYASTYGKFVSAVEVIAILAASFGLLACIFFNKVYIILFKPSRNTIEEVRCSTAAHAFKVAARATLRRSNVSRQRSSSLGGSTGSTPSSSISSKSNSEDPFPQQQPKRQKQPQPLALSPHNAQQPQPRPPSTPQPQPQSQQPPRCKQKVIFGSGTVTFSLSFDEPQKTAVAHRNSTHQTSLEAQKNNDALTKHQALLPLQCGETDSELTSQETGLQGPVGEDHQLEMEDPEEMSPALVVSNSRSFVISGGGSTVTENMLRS", "test": "Mobilization of intracellular Ca2+ ([Ca2+]i, fura-2) in bovine parathyroid cells", "type": "cell-based", "set-up": "Parathyroid glands were obtained from freshly slaughtered calves (12-15 weeks old); endogenous in cells; host or cells: dissociated primary bovine (calf) parathyroid cells", "conditions": "tested at 1 μM", "note": "For at least one compound, name, drawing or mass did not settle the structure.", "data": [{"molecule": "CCOC(=O)C1=C(C)NC(C)=C(C(=O)OC)C1c1cccc([N+](=O)[O-])c1", "note": "(stereo not shown) [nitrendipine]", "values": [{"measurement": "compounds with any effect on basal [Ca2+]i or increases evoked by extracellular Ca2+", "value": "None"}]}]}
